doi:10.1101/2023.08.21.554079
These are yes or no findings as the source states them, for the method shown. Binding seen in cells or lysates may run through a third protein. Some binding calls cover weakened binding; strength is not graded here. For some assays here: Where a sequence is shown, tags or fusion partners need not be part of it. Blank lines part the entries; values can stand above or below the binder they belong to.

The chains behind the UniProt entries cited, without tags or fusion partners.
UniProt Q04338: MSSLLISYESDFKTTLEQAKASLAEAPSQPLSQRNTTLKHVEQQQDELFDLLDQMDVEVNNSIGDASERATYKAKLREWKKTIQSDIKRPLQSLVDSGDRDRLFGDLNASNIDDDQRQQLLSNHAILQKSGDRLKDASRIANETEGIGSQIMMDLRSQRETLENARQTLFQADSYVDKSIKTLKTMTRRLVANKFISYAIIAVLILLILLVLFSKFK
UniProt P38873: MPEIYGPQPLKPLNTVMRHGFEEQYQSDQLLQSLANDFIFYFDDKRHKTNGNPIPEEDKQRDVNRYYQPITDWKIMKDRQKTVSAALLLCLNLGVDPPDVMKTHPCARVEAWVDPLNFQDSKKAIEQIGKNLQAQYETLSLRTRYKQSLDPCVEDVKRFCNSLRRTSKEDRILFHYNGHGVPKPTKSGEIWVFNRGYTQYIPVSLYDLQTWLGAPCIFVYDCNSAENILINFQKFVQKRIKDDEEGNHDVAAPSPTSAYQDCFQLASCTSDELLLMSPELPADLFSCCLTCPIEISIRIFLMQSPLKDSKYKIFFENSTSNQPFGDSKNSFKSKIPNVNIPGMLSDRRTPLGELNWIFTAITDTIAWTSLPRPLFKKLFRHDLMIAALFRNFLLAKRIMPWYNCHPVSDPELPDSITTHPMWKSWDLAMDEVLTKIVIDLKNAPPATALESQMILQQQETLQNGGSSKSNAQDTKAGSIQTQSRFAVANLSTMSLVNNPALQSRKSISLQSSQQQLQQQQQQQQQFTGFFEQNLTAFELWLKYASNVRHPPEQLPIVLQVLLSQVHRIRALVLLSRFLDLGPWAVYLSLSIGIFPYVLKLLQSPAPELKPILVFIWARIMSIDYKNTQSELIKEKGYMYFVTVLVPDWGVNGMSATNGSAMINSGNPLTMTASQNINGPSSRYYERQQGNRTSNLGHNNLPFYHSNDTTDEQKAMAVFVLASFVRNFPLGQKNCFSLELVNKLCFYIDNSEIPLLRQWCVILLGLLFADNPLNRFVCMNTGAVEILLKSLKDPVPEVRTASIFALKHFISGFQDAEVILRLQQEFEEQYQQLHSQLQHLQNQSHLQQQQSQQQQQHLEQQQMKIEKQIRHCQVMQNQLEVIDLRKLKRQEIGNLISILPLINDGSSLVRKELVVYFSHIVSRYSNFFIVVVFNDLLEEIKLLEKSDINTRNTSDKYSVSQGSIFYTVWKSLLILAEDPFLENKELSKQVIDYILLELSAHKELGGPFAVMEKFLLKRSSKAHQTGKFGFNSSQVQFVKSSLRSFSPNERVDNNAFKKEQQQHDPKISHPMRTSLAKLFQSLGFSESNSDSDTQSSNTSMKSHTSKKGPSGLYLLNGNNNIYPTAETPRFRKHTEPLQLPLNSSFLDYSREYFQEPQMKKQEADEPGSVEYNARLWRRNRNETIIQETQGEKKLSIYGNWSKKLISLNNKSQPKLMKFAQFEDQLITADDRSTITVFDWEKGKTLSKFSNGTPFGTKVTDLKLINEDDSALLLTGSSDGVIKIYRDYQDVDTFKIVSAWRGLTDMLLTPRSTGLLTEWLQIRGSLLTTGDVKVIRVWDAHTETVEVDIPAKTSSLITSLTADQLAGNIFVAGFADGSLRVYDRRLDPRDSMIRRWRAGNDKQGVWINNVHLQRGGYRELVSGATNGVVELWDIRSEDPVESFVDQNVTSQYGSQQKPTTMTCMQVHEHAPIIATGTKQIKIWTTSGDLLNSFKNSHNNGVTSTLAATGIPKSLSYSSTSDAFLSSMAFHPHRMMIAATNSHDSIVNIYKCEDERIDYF
UniProt P35169: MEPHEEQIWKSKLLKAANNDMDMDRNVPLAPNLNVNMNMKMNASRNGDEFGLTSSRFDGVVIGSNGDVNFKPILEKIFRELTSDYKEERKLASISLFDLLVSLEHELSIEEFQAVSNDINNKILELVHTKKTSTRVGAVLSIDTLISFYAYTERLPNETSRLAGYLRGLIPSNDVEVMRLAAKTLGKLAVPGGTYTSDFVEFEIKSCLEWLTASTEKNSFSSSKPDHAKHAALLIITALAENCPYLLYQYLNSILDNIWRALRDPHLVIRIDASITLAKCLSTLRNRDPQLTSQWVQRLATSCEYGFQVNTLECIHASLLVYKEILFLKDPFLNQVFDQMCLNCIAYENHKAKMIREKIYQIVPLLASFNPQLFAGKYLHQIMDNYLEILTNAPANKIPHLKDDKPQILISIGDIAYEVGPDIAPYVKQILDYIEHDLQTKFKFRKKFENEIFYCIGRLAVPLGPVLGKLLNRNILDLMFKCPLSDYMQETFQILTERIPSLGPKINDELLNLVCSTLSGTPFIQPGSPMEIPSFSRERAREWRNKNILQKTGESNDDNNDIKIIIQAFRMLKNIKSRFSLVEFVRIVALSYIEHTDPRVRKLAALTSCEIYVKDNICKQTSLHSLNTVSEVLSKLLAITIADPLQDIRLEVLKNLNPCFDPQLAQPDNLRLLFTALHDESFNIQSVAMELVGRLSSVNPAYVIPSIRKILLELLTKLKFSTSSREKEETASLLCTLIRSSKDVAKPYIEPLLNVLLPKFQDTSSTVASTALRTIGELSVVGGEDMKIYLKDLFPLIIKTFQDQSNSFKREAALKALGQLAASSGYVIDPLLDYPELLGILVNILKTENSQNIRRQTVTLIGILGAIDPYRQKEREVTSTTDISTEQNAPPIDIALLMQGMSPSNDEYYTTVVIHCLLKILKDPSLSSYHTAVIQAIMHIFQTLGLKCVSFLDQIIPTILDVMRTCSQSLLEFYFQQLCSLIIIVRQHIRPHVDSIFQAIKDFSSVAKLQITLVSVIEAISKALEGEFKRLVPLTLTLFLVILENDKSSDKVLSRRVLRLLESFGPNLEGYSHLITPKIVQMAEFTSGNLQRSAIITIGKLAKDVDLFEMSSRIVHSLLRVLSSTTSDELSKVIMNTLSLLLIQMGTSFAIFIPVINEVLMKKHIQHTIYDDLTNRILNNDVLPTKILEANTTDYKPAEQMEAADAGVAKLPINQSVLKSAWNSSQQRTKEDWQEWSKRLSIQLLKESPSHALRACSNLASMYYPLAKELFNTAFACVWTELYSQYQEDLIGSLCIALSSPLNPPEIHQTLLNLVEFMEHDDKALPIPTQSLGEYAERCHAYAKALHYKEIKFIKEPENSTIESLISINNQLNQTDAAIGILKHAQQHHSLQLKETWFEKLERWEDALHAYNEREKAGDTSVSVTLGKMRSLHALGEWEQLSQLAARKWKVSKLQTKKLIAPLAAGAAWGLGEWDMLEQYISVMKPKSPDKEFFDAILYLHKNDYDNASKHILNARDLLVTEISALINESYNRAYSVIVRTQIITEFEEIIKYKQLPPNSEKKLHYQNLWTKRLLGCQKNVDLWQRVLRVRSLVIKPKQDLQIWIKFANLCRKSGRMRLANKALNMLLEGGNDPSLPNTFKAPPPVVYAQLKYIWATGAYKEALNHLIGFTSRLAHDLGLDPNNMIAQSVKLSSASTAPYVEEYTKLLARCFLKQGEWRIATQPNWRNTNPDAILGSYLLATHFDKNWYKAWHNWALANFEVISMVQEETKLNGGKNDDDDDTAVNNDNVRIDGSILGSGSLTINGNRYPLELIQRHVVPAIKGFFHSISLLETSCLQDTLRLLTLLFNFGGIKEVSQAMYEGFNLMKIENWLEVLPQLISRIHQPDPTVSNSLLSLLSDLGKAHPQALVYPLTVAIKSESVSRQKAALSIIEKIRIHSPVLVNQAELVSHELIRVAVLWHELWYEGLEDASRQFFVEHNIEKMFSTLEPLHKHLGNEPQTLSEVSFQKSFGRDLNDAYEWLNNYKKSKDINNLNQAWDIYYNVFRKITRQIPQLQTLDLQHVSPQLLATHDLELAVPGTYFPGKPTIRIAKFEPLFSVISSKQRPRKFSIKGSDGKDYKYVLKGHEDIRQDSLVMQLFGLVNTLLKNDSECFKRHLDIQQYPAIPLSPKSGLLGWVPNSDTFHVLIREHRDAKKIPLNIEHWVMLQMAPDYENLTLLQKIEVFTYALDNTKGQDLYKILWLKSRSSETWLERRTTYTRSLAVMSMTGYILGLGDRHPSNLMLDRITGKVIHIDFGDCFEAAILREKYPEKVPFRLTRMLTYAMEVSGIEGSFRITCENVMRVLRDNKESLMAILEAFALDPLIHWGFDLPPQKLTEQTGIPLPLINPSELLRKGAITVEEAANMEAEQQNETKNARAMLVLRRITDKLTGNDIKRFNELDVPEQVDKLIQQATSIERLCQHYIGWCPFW

How the values were obtained:
Assay in all cases: cross-linking
[1] = molecular target: Vti1 (Saccharomyces cerevisiae (endogenous in yeast vacuoles)) (UniProt Q04338)
[2] = molecular target: T1, Vam3 (Saccharomyces cerevisiae (endogenous in yeast vacuoles)) (UniProt Q12241)
T1 sequence: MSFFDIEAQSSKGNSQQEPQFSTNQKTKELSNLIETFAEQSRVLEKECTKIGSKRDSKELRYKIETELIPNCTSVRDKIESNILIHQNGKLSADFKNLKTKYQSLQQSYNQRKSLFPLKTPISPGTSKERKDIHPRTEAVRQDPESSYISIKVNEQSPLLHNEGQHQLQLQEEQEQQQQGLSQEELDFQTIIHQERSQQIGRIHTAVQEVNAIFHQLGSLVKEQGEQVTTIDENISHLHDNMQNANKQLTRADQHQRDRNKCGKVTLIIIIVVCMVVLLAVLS

[3] = molecular target: Kog1 (Saccharomyces cerevisiae (endogenous in yeast vacuoles)) (UniProt P38873)
[4] = molecular target: Tor1 (Saccharomyces cerevisiae (endogenous in yeast vacuoles)) (UniProt P35169)
[5] = molecular target: T2, Lst8 (Saccharomyces cerevisiae (endogenous in yeast vacuoles)) (UniProt P41318)
T2 sequence: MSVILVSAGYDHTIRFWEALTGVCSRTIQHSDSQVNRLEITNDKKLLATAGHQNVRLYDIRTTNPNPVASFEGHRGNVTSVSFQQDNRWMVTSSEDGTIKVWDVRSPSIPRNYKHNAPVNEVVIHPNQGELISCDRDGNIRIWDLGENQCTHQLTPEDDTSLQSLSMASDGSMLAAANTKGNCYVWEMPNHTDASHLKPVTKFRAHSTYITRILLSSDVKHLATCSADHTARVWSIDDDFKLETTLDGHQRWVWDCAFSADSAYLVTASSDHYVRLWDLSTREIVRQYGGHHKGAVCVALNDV

binding [1]: binds | binding [2]: binds
B1: Vam7 (protein, UniProt P32912 1-316)
chain: MAANSVGKMSEKLRIKVDDVKINPKYVLYGVSTPNKRLYKRYSEFWKLKTRLERDVGSTIPYDFPEKPGVLDRRWQRRYDDPEMIDERRIGLERFLNELYNDRFDSRWRDTKIAQDFLQLSKPNVSQEKSQQHLETADEVGWDEMIRDIKLDLDKESDGTPSVRGALRARTKLHKLRERLEQDVQKKSLPSTEVTRRAALLRSLLKECDDIGTANIAQDRGRLLGVATSDNSSTTEVQGRTNNDLQQGQMQMVRDQEQELVALHRIIQAQRGLALEMNEELQTQNELLTALEDDVDNTGRRLQIANKKARHFNNSA

binding [3]: binds | binding [4]: binds | binding [5]: binds
B2: Pib2 (protein, UniProt P53191 1-635)
chain: MTALHSVSKTPAIKEEEEDGDERDGRGVPLGPRNHDYRGRKGDEESGADTVTSPITFEKKKIAPRASTHSEQSILSSISLKSMVNQHRQQQLQQESSTGAGTGFVDRKQQIQSPAMVSILRKNSAEENVRSSHSSKLGEGQIDGRKASASKEIGKTLPFTDDQRSNPELDPTNSVVDVSRGKNTKSKTVFNELEDDADDDDEVRQKNLTTQALRKLSSFKMNASSNLRLSKENKAKESSSSSTSSVSSSSTSKVENIVDKLTTTNSSSMSQLRFGNTNVIIDSVNHAAKPPHQQMLRKPSLEFLPQPASSTNLNFNSNKHKSNVRQISNPKKPLYIPAVLRKVSETNITNDDLLNATLSSYYKKASNLEHGFNPSKSQSASVQNANNLRIISSQSSVQSNTSSILESYKNKISSYLFPNSIPNSDRINLIPTISNRNSARVNPPTKDHWIPDSKRNSCRYCHKPFTLWERKHHCRHCGDIFCQDHLRHWLYLDSQANFIMINELNNGGINGGGTLCKICDDCLVEYENLSTTNHNANTNEDNINVEEGEDDDNDNRKKLRNYYKNRQMNALFRPKKGGSSQEHATVDRDTTTPIQVKSNDEEADNENTGGEQEEGNDVLGSVIGSVPANWNWSSF
